Laboratory results: PubChem BioAssay AID504804 (Drosophila RNAi Screening Center, 2011)
Assay: 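Knock-downs shielding fly cells from apoptosis caused by DNA damage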 (primary screen). System: Drosophila Kc cells. Knock-down reagent: long dsRNA against Drosophila genes, 0.5 µg dsRNA per well. Duration: 96 h (48 h knock-down, then 48 h drug). Treatment: doxorubicin 5 µg/ml for 48 h, added 48 h after dsRNA. Measured: 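Viability measured as cellular ATP by luminescence after 48 h knock-down then 48 h doxorubicin at 5 µg/ml; unnormalised plate counts for each replicate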. Scale: raw ATP luminescence: higher = more viable cells, protection from doxorubicin. Hit rule: 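Active when both duplicate wells lie at least 2 SD above the plate mean and protection is confirmed by rescreening and independent dsRNAs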.
In all, the deposit lists about 19,000 reagents; shown is an unselected part of those with a known target gene and a result. Over the whole deposit, 47 (0.25%) were called active. 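Signals are raw, not normalised; exact z-scores behind calls not deposited; actives needed confirmation, so some wells reaching 2 SD are inactive.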 A plus sign joins genes that one reagent is predicted to hit.

CG32668 [DRSC18879] → raw ATP luminescence, replicate 1 = 1.99e5; raw ATP luminescence, replicate 2 = 2.56e5; Outcome = inactive
CG9577 [DRSC20693] → raw ATP luminescence, replicate 1 = 3.46e5; raw ATP luminescence, replicate 2 = 3.60e5; Outcome = inactive
CPT2 (Carnitine palmitoyltransferase 2) [DRSC08553] → raw ATP luminescence, replicate 1 = 54353; raw ATP luminescence, replicate 2 = 89710; Outcome = inactive
Osi14 (Osiris 14) [DRSC12368] → raw ATP luminescence, replicate 1 = 78503; raw ATP luminescence, replicate 2 = 52623; Outcome = inactive
Gr59e (Gustatory receptor 59e) [DRSC04276] → raw ATP luminescence, replicate 1 = 44027; raw ATP luminescence, replicate 2 = 54537; Outcome = inactive
TM9SF2 (Transmembrane 9 superfamily protein member 2) [DRSC03197] → raw ATP luminescence, replicate 1 = 76480; raw ATP luminescence, replicate 2 = 85237; Outcome = inactive
CG32199 [DRSC09990] → raw ATP luminescence, replicate 1 = 60333; raw ATP luminescence, replicate 2 = 52333; Outcome = inactive
CG7220 [DRSC05235] → raw ATP luminescence, replicate 1 = 1.15e5; raw ATP luminescence, replicate 2 = 1.14e5; Outcome = inactive
CG7220 [DRSC07018] → raw ATP luminescence, replicate 1 = 29717; raw ATP luminescence, replicate 2 = 60360; Outcome = inactive
CG42586 + CG31775 [DRSC01413] → raw ATP luminescence, replicate 1 = 1.68e5; raw ATP luminescence, replicate 2 = 1.09e5; Outcome = inactive
ear (ENL/AF9-related) [DRSC15675] → raw ATP luminescence, replicate 1 = 46417; raw ATP luminescence, replicate 2 = 22387; Outcome = inactive
Ppat-Dpck [DRSC09744] → raw ATP luminescence, replicate 1 = 85323; raw ATP luminescence, replicate 2 = 93977; Outcome = inactive
geminin [DRSC04984] → raw ATP luminescence, replicate 1 = 56803; raw ATP luminescence, replicate 2 = 53830; Outcome = inactive
CG18518 [DRSC01509] → raw ATP luminescence, replicate 1 = 2.91e5; raw ATP luminescence, replicate 2 = 1.90e5; Outcome = inactive
CG4294 [DRSC04460] → raw ATP luminescence, replicate 1 = 47293; raw ATP luminescence, replicate 2 = 50353; Outcome = inactive
CG33253 [DRSC19547] → raw ATP luminescence, replicate 1 = 4.19e5; raw ATP luminescence, replicate 2 = 3.59e5; Outcome = inactive
CG33253 [DRSC20053] → raw ATP luminescence, replicate 1 = 4.53e5; raw ATP luminescence, replicate 2 = 3.43e5; Outcome = inactive
CG11398 [DRSC18625] → raw ATP luminescence, replicate 1 = 54340; raw ATP luminescence, replicate 2 = 43790; Outcome = inactive
CG34299 [DRSC13974] → raw ATP luminescence, replicate 1 = 2.12e5; raw ATP luminescence, replicate 2 = 1.82e5; Outcome = inactive
CG14852 [DRSC14976] → raw ATP luminescence, replicate 1 = 53280; raw ATP luminescence, replicate 2 = 50350; Outcome = inactive
RanBP3 (Ran binding protein 3) [DRSC14217] → raw ATP luminescence, replicate 1 = 31183; raw ATP luminescence, replicate 2 = 51410; Outcome = inactive
CG14050 [DRSC18594] → raw ATP luminescence, replicate 1 = 55000; raw ATP luminescence, replicate 2 = 69690; Outcome = inactive
Erasp (Endoplasmic reticulum stress-associated serine protease) [DRSC07111] → raw ATP luminescence, replicate 1 = 65280; raw ATP luminescence, replicate 2 = 72760; Outcome = inactive
mRNA-cap (mRNA-capping-enzyme) [DRSC19789] → raw ATP luminescence, replicate 1 = 3.77e5; raw ATP luminescence, replicate 2 = 3.13e5; Outcome = inactive
CG30471 [DRSC07096] → raw ATP luminescence, replicate 1 = 56413; raw ATP luminescence, replicate 2 = 74773; Outcome = inactive
nkd (naked cuticle) [DRSC11376] → raw ATP luminescence, replicate 1 = 81230; raw ATP luminescence, replicate 2 = 51117; Outcome = inactive
Poc1 (Proteome of centrioles 1) [DRSC09713] → raw ATP luminescence, replicate 1 = 38020; raw ATP luminescence, replicate 2 = 44257; Outcome = inactive
Blimp-1 [DRSC10496] → raw ATP luminescence, replicate 1 = 56303; raw ATP luminescence, replicate 2 = 65430; Outcome = inactive
CG9021 [DRSC03128] → raw ATP luminescence, replicate 1 = 1.19e5; raw ATP luminescence, replicate 2 = 74093; Outcome = inactive
CycK (Cyclin K) [DRSC03714] → raw ATP luminescence, replicate 1 = 72260; raw ATP luminescence, replicate 2 = 64667; Outcome = inactive
CCT5 (Chaperonin containing TCP1 subunit 5) [DRSC07357] → raw ATP luminescence, replicate 1 = 73427; raw ATP luminescence, replicate 2 = 55317; Outcome = inactive
CG33523 [DRSC09814] → raw ATP luminescence, replicate 1 = 69217; raw ATP luminescence, replicate 2 = 76077; Outcome = inactive
CG46441 [DRSC15561] → raw ATP luminescence, replicate 1 = 63127; raw ATP luminescence, replicate 2 = 47523; Outcome = inactive
TfIIFbeta (Transcription factor TFIIFbeta) [DRSC16884] → raw ATP luminescence, replicate 1 = 49060; raw ATP luminescence, replicate 2 = 49163; Outcome = inactive
Muc11A (Mucin 11A) [DRSC19498] → raw ATP luminescence, replicate 1 = 4.18e5; raw ATP luminescence, replicate 2 = 3.63e5; Outcome = inactive
uzip (unzipped) [DRSC04722] → raw ATP luminescence, replicate 1 = 73320; raw ATP luminescence, replicate 2 = 68250; Outcome = inactive

A run of entries from the list above, for reference:
CG7220 [DRSC05235] → raw ATP luminescence, replicate 1 = 1.15e5; raw ATP luminescence, replicate 2 = 1.14e5; Outcome = inactive
CG7220 [DRSC07018] → raw ATP luminescence, replicate 1 = 29717; raw ATP luminescence, replicate 2 = 60360; Outcome = inactive
CG42586 + CG31775 [DRSC01413] → raw ATP luminescence, replicate 1 = 1.68e5; raw ATP luminescence, replicate 2 = 1.09e5; Outcome = inactive
ear (ENL/AF9-related) [DRSC15675] → raw ATP luminescence, replicate 1 = 46417; raw ATP luminescence, replicate 2 = 22387; Outcome = inactive
Ppat-Dpck [DRSC09744] → raw ATP luminescence, replicate 1 = 85323; raw ATP luminescence, replicate 2 = 93977; Outcome = inactive
geminin [DRSC04984] → raw ATP luminescence, replicate 1 = 56803; raw ATP luminescence, replicate 2 = 53830; Outcome = inactive
